Source: patent US9938322B2 (priority 2013, dated 2018)
Some peptides are written in HELM: one residue between dots, names in brackets for other building blocks, links after the first $.

Experiment: general procedure: Fmoc solid-phase peptide synthesis; preloaded Fmoc-amino acid 2-chlorotrityl resins
Conditions: whole synthesis, scale of the general procedure approximately 80 mg resin per vessel

Row | Substance | purity (crude or final not stated) [%]
1 | PEPTIDE1{L.S.[Cha].[Dab].[Orn].[Dab].[Dab].W.[Dab].[tBuGly].S.S.[dP].P}$PEPTIDE1,PEPTIDE1,1:R1-14:R2$$$V2.0 | 86
2 | PEPTIDE1{L.S.[Tyr(Me)].[Dab].[Orn].[DDab].[Dab].W.[Dab].[tBuGly].A.S.[dP].P}$PEPTIDE1,PEPTIDE1,1:R1-14:R2$$$V2.0 | 88
3 | PEPTIDE1{L.S.[tBuGly].[Dab].[Orn].[DDab].[Dab].W.[Dab].[Chg].A.S.[dP].P}$PEPTIDE1,PEPTIDE1,1:R1-14:R2$$$V2.0 | 93
4 | PEPTIDE1{L.T.Y.[Dab].[Dab].[D-Dab].[Dab].W.[Dab].[tBuGly].S.T.[dP].P}$PEPTIDE1,PEPTIDE1,1:R1-14:R2$$$V2.0 | 88
5 | PEPTIDE1{L.T.Y.[Dab].[Orn].[D-Dab].[Dab].W.[Dab].[tBuGly].T.S.[dP].P}$PEPTIDE1,PEPTIDE1,1:R1-14:R2$$$V2.0 | 89
6 | PEPTIDE1{L.T.Y.[Dab].[Orn].[D-Dab].[Dab].W.[Dab].[tBuGly].Y.S.[dP].P}$PEPTIDE1,PEPTIDE1,1:R1-14:R2$$$V2.0 | 88
7 | PEPTIDE1{L.T.Y.[Dab].[Orn].[D-Dab].[Dab].W.[Dab].[tBuGly].[Dab].S.[dP].P}$PEPTIDE1,PEPTIDE1,1:R1-14:R2$$$V2.0 | 93
8 | PEPTIDE1{L.[Ala(4butoxyPhUr)].[Cha].[Dab].[Orn].[DDab].[Dab].W.[Dab].[tBuGly].A.S.[dP].P}$PEPTIDE1,PEPTIDE1,1:R1-14:R2$$$V2.0 | 78
9 | PEPTIDE1{L.[Ala(iPrUr)].[Cha].[Dab].[Orn].[DDab].[Dab].W.[Dab].[tBuGly].A.S.[dP].P}$PEPTIDE1,PEPTIDE1,1:R1-14:R2$$$V2.0 | 91
10 | PEPTIDE1{L.[Dab].Y.[Dab].[Orn].[DDab].[Dab].W.[Dab].[tBuGly].D.S.[dP].P}$PEPTIDE1,PEPTIDE1,1:R1-14:R2$$$V2.0 | 93
11 | PEPTIDE1{L.[Dab].Y.[Dab].[Orn].[DDab].[Dab].W.[Dab].[tBuGly].T.S.[dP].P}$PEPTIDE1,PEPTIDE1,1:R1-14:R2$$$V2.0 | 93
12 | PEPTIDE1{L.[Dap].W.[Dab].[Orn].[DDab].[Dab].W.[Dab].[tBuGly].A.S.[dP].P}$PEPTIDE1,PEPTIDE1,1:R1-14:R2$$$V2.0 | 88
13 | PEPTIDE1{L.[Dap].Y.[Dab].[Dab].[DDab].[Dab].W.[Dab].[tBuGly].S.T.[dP].P}$PEPTIDE1,PEPTIDE1,1:R1-14:R2$$$V2.0 | 91
14 | PEPTIDE1{L.[Dap].Y.[Dab].[Orn].[DDab].[Dab].W.[Dab].[tBuGly].A.S.[dP].P}$PEPTIDE1,PEPTIDE1,1:R1-14:R2$$$V2.0 | 91
15 | PEPTIDE1{T.S.Y.[Dab].[Orn].[DDab].[Dab].W.[Dab].[tBuGly].A.L.[dP].P}$PEPTIDE1,PEPTIDE1,1:R1-14:R2$$$V2.0 | 93
16 | PEPTIDE1{T.S.Y.[Dab].[Orn].[DDab].[Dab].W.[Dab].[tBuGly].A.Y.[dP].P}$PEPTIDE1,PEPTIDE1,1:R1-14:R2$$$V2.0 | 95
17 | PEPTIDE1{V.A.Y.[Dab].[Orn].[D-Dab].[Dab].W.[Dab].[tBuGly].A.S.[dP].P}$PEPTIDE1,PEPTIDE1,1:R1-14:R2$$$V2.0 | 82
18 | PEPTIDE1{V.S.Y.[Dab].[Orn].[D-Dab].[Dab].W.[Dab].[tBuGly].A.S.[dP].[Pro((3S)OH)]}$PEPTIDE1,PEPTIDE1,1:R1-14:R2$$$V2.0 | 92
19 | PEPTIDE1{V.S.Y.[Dab].[Orn].[DDab].[Dab].W.[Dab].[Cha].A.S.[dP].P}$PEPTIDE1,PEPTIDE1,1:R1-14:R2$$$V2.0 | 92

Row | Substance | purity (crude or final not stated) [%]
20 | PEPTIDE1{V.S.Y.[Dab].[Orn].[DDab].[Dab].W.[Dab].[Chg].A.S.[dP].P}$PEPTIDE1,PEPTIDE1,1:R1-14:R2$$$V2.0 | 79
21 | PEPTIDE1{V.S.Y.[Dab].[Orn].[DDab].[Dab].W.[Dab].[tBuGly].A.S.[dP].P}$PEPTIDE1,PEPTIDE1,1:R1-14:R2$$$V2.0 | 88
22 | PEPTIDE1{V.S.Y.[Dab].[Orn].[Dab].[Dab].W.[Dab].[tBuGly].A.S.[dP].P}$PEPTIDE1,PEPTIDE1,1:R1-14:R2$$$V2.0 | 87
23 | PEPTIDE1{W.A.W.[Dab].[Orn].[D-Dab].[Dab].W.[Dab].[tBuGly].A.S.[dP].P}$PEPTIDE1,PEPTIDE1,1:R1-14:R2$$$V2.0 | 78
24 | PEPTIDE1{W.A.Y.[Dab].K.[D-Dab].[Dab].W.[Dab].[Cha].A.S.[dP].P}$PEPTIDE1,PEPTIDE1,1:R1-14:R2$$$V2.0 | 86
25 | PEPTIDE1{W.A.Y.[Dab].K.[D-Dab].[Dab].W.[Dab].[tBuGly].A.S.[dP].P}$PEPTIDE1,PEPTIDE1,1:R1-14:R2$$$V2.0 | 94
26 | PEPTIDE1{W.A.Y.[Dab].[Orn].[D-Dab].[Dab].W.[Dab].[Chg].A.S.[dP].P}$PEPTIDE1,PEPTIDE1,1:R1-14:R2$$$V2.0 | 94
27 | PEPTIDE1{W.A.Y.[Dab].[Orn].[DDab].[Dab].W.[Dab].[tBuGly].A.S.[dP].P}$PEPTIDE1,PEPTIDE1,1:R1-14:R2$$$V2.0 | 91
28 | PEPTIDE1{W.A.[Cha].[Dab].[Orn].[DDab].[Dab].W.[Dab].[tBuGly].[Ser(Me)].S.[dP].[Oic]}$PEPTIDE1,PEPTIDE1,1:R1-14:R2$$$V2.0 | 97
29 | PEPTIDE1{W.A.[Cha].[Dab].[Orn].[Dab].[Dab].W.[Dab].[tBuGly].[Ser(Me)].S.[dP].P}$PEPTIDE1,PEPTIDE1,1:R1-14:R2$$$V2.0 | 93
30 | PEPTIDE1{W.A.[Chg].[Dab].[Orn].[DDab].[Dab].W.[Dab].[tBuGly].A.S.[dP].P}$PEPTIDE1,PEPTIDE1,1:R1-14:R2$$$V2.0 | 99
31 | PEPTIDE1{W.S.Y.[Dab].[Orn].[D-Dab].[Dab].W.[Dab].V.A.S.[dP].P}$PEPTIDE1,PEPTIDE1,1:R1-14:R2$$$V2.0 | 95
32 | PEPTIDE1{W.S.Y.[Dab].[Orn].[D-Dab].[Dab].W.[Dab].[Cha].A.S.[dP].P}$PEPTIDE1,PEPTIDE1,1:R1-14:R2$$$V2.0 | 95
33 | PEPTIDE1{W.S.Y.[Dab].[Orn].[D-Dab].[Dab].W.[Dab].[Nva].A.S.[dP].P}$PEPTIDE1,PEPTIDE1,1:R1-14:R2$$$V2.0 | 90
34 | PEPTIDE1{W.S.Y.[Dab].[Orn].[Dab].[Dab].W.[Dab].[tBuGly].A.S.[dP].P}$PEPTIDE1,PEPTIDE1,1:R1-14:R2$$$V2.0 | 87
35 | PEPTIDE1{W.S.[Cha].[Dab].[Orn].[DDap].[Dab].W.[Dab].[tBuGly].A.S.[dP].P}$PEPTIDE1,PEPTIDE1,1:R1-14:R2$$$V2.0 | 98
36 | PEPTIDE1{W.S.[Cha].[Dab].[Orn].[Dab].[Dab].W.[Dab].[tBuGly].A.S.[dP].P}$PEPTIDE1,PEPTIDE1,1:R1-14:R2$$$V2.0 | 96
37 | PEPTIDE1{W.S.[tBuGly].[Dab].[Orn].[D-Dab].[Dab].W.[Dab].[Nva].A.S.[dP].P}$PEPTIDE1,PEPTIDE1,1:R1-14:R2$$$V2.0 | 92
